Measurements taken from patent US10786450B2, “Process for preparing a dry powder formulation comprising an anticholinergic, a corticosteroid and a beta-adrenergic” (CHIESI FARMACEUTICI S.p.A., priority 2017, dated 2020).

Experiments:
[1] = Particle size distribution (PSD) by Malvern analysis of micronized powders, initial and after humidity exposure; conditions: 30° C./65% RH 3 days and 25° C./90% RH 4 hours, open tray
[2] = Uniformity of distribution of the active ingredients in the powder blend by HPLC; assay type: physicochemical; conditions: Example 3 powder formulation; 10 samples from different parts of the blend; mean value±RSD

In the case of C[N+]1(C)CCC(OC(=O)C(O)(c2ccccc2)C2CCCC2)C1 (racemic) [GB, glycopyrronium bromide], the “Change of particle size distribution upon exposure to humidity (agglomeration)” value [1] was “significant increase of the particle size” and the Uniformity of distribution [2] was 101.4 (±1.6).
